The values below come from the supplement of paper PMC8291772.

The chains behind the UniProt entries cited, without tags or fusion partners. Where a name states a change or a piece, a line headed by the entry shows the natural chain unless it says otherwise.
UniProt P06526: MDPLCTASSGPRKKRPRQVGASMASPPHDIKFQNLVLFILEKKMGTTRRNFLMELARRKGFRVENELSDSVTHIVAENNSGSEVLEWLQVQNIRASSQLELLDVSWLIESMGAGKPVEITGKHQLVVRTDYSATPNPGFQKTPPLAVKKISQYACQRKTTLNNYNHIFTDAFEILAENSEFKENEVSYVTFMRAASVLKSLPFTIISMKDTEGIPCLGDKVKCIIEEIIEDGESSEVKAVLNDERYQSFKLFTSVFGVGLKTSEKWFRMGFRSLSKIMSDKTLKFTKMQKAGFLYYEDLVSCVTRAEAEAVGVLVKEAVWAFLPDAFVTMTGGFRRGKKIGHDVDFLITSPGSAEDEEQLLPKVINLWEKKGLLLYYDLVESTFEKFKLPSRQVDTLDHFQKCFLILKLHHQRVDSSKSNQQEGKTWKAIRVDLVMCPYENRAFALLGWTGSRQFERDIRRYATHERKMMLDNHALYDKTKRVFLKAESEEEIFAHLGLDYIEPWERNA

± gives the standard error. The list shows a part of the results. Single values are uncertain here, since repeats match poorly.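 The library held every possible DNA sequence from one to five nucleotides long. General ability to extend was judged against a limit of the blocked-version mean plus three standard deviations, and the probe detects only chains extended by at least seven dT.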

The target of this experiment is terminal deoxynucleotidyl transferase (calf thymus) (UniProt P06526). The experiment is described as follows: TdT poly-dT extension signal (Cy3 hybridisation fluorescence, uncapped minus capped) (fluorescence a.u.); higher = more efficient initiation of TdT extension. The conditions noted are these: initiator chemistry: D-DNA, free 3'-OH (5'-tethered via HEG linker).
As to AACT, the “TdT poly-dT extension signal” value amounted to 3210 ± 290.
As to CCCT, the “TdT poly-dT extension signal” value came out at 3240 ± 320.
On to ACATG, for which the “TdT poly-dT extension signal” value turned out to be 3910 ± 360.
For GCTTG, the “TdT poly-dT extension signal” value is 3850 ± 340.
On to GCACA, for which the “TdT poly-dT extension signal” value amounted to 3930 ± 400.
The figure for TTAGG is 3460 ± 400; for GCCGC it is 3270 ± 430; for CTGAA it is 4110 ± 590.
The figure for GTAA is 3060 ± 380; for GGGCG it is 4720 ± 420; for ATGTA it is 3420 ± 330.
Turning to GAATT, the “TdT poly-dT extension signal” value was found to be 4010 ± 380.
As to GGTGT, the “TdT poly-dT extension signal” value is 3800 ± 320.
For GGATC the value was 2510 ± 360; for TGATT, 4380 ± 300; for ACTAA, 3820 ± 360.
On to TCCCG, for which the “TdT poly-dT extension signal” value came to 3300 ± 360.
In the case of ACATT, the “TdT poly-dT extension signal” value is 4070 ± 310.
Turning to TCTGC, the “TdT poly-dT extension signal” value amounted to 3530 ± 280.
Turning to TCTAT, the “TdT poly-dT extension signal” value turned out to be 3270 ± 350.
Consider CCTG, for which the “TdT poly-dT extension signal” value was determined as 3880 ± 300.
For GGAA, the “TdT poly-dT extension signal” value came out at 3790 ± 560.
For the sequence TGTTG, the “TdT poly-dT extension signal” value came to 3890 ± 440.
As to CCCGT, the “TdT poly-dT extension signal” value was 4870 ± 530.
Regarding AGAAC, the “TdT poly-dT extension signal” value was determined as 3600 ± 490.
For GGCA the value was 3350 ± 340; for CGTCC, 3190 ± 190.
Regarding CCTC, the “TdT poly-dT extension signal” value turned out to be 2800 ± 410.
Consider ATCAT, for which the “TdT poly-dT extension signal” value was found to be 3770 ± 460.
As to ACGGG, the “TdT poly-dT extension signal” value came to 3960 ± 520.
As for AGGTG, the “TdT poly-dT extension signal” value was found to be 3390 ± 340.
Take TTGGA: the “TdT poly-dT extension signal” value is 2900 ± 650.
For ACGGA the value was 4240 ± 500.
As to AGCAG, the “TdT poly-dT extension signal” value turned out to be 3360 ± 900.
As for GACTT, the “TdT poly-dT extension signal” value came to 3190 ± 310.
As to CTGG, the “TdT poly-dT extension signal” value was 4310 ± 320.
For the sequence CGCCC, the “TdT poly-dT extension signal” value came to 3000 ± 310.
For the sequence CGTT, the “TdT poly-dT extension signal” value was 2930 ± 320.
TGTCT: the “TdT poly-dT extension signal” value came out at 3410 ± 300.
As to GCGGC, the “TdT poly-dT extension signal” value is 3550 ± 390.
Consider GCACT, for which the “TdT poly-dT extension signal” value is 3860 ± 480.
In the case of TCTA, the “TdT poly-dT extension signal” value was found to be 3090 ± 550.
For the sequence AGATT, the “TdT poly-dT extension signal” value is 3190 ± 290.
Regarding TCTCC, the “TdT poly-dT extension signal” value came to 2850 ± 240.
The figure for TTCCT is 3940 ± 310.
TGTCG: the “TdT poly-dT extension signal” value worked out at 4000 ± 250.
For AGGCT the value was 3660 ± 280.
As for TTGAC, the “TdT poly-dT extension signal” value came out at 2920 ± 360.
As to GAAAG, the “TdT poly-dT extension signal” value worked out at 4070 ± 460.
Consider GTACC, for which the “TdT poly-dT extension signal” value was 2920 ± 280.
For TTTCT, the “TdT poly-dT extension signal” value was 3830 ± 580.
CAAA: the “TdT poly-dT extension signal” value came out at 3870 ± 410.
For GGTGA the value was 2810 ± 590; for ATGCA, 3830 ± 720.
The figure for TTGCG is 4460 ± 600.
Turning to CTGTT, the “TdT poly-dT extension signal” value came out at 4080 ± 400.
On to GTCA, for which the “TdT poly-dT extension signal” value turned out to be 3410 ± 290.
The figure for GACAG is 4060 ± 730.
As to AGAC, the “TdT poly-dT extension signal” value was 2780 ± 260.
Regarding ACGAC, the “TdT poly-dT extension signal” value came out at 3150 ± 290.
For the sequence CATG, the “TdT poly-dT extension signal” value is 3800 ± 420.
Take TCAGT: the “TdT poly-dT extension signal” value was 3830 ± 400.
With GGGTG, the “TdT poly-dT extension signal” value worked out at 3920 ± 410.
For AGGGA the value was 4210 ± 400.
The figure for GAGGC is 2810 ± 360.
Regarding GTTA, the “TdT poly-dT extension signal” value came to 3490 ± 490.
For CCCCT, the “TdT poly-dT extension signal” value is 3370 ± 260.
Regarding TACTC, the “TdT poly-dT extension signal” value worked out at 2960 ± 240.
GTTTA: the “TdT poly-dT extension signal” value was found to be 4140 ± 370.
Turning to ACTGT, the “TdT poly-dT extension signal” value is 4160 ± 480.
Take AGTAG: the “TdT poly-dT extension signal” value was 2330 ± 560.
For CAGCG, the “TdT poly-dT extension signal” value was found to be 4340 ± 520.
On to GGAT, for which the “TdT poly-dT extension signal” value is 3340 ± 300.
As to ACCCC, the “TdT poly-dT extension signal” value came to 3180 ± 310.
Turning to GACCC, the “TdT poly-dT extension signal” value was 2660 ± 290.
As for GGTGG, the “TdT poly-dT extension signal” value was determined as 4600 ± 740.
Turning to GCAGG, the “TdT poly-dT extension signal” value is 4300 ± 340.
For TTTCA the value was 3510 ± 360; for TTCA, 3540 ± 490; for GAGAA, 4480 ± 450.
Take GTAT: the “TdT poly-dT extension signal” value is 3430 ± 380.
Turning to TATAT, the “TdT poly-dT extension signal” value turned out to be 4180 ± 410.
For GGCTG, the “TdT poly-dT extension signal” value turned out to be 3220 ± 370.
As for AGGGG, the “TdT poly-dT extension signal” value is 4880 ± 430.
Consider CTCAA, for which the “TdT poly-dT extension signal” value was determined as 4300 ± 530.
As to TGGGA, the “TdT poly-dT extension signal” value was 4420 ± 570.
As for ATAA, the “TdT poly-dT extension signal” value was 3680 ± 270.
The figure for AAATA is 3630 ± 480; for CACGG it is 4450 ± 750; for CGGGC it is 3880 ± 330.
CCGT: the “TdT poly-dT extension signal” value stood at 3970 ± 400.
The figure for TCGTT is 3010 ± 470; for TGTT it is 3760 ± 280.
As to CTGA, the “TdT poly-dT extension signal” value was found to be 3820 ± 290.
For GGTCC, the “TdT poly-dT extension signal” value was determined as 2850 ± 240.
For the sequence ACTGA, the “TdT poly-dT extension signal” value was determined as 4020 ± 290.
As to ATCCT, the “TdT poly-dT extension signal” value turned out to be 3490 ± 240.
Take TGCGT: the “TdT poly-dT extension signal” value worked out at 3660 ± 390.
For GAGT, the “TdT poly-dT extension signal” value was found to be 3750 ± 420.
Take TCTGG: the “TdT poly-dT extension signal” value was 3530 ± 490.
On to TCCAC, for which the “TdT poly-dT extension signal” value came out at 3610 ± 190.
Regarding GGCGA, the “TdT poly-dT extension signal” value was 4180 ± 420.
Consider GATA, for which the “TdT poly-dT extension signal” value stood at 3860 ± 400.
For AGGAC, the “TdT poly-dT extension signal” value was found to be 2940 ± 300.
The figure for CGTTC is 2560 ± 340.
The figure for CATC is 3520 ± 280.
Regarding ATTC, the “TdT poly-dT extension signal” value amounted to 3130 ± 270.
For the sequence TGGC, the “TdT poly-dT extension signal” value worked out at 2750 ± 400.
Turning to CGACG, the “TdT poly-dT extension signal” value stood at 3880 ± 320.
Consider TCACC, for which the “TdT poly-dT extension signal” value is 2760 ± 290.
For GTGCT the value was 3490 ± 510; for TTGCA, 3470 ± 430; for CGGTC, 3400 ± 370.
For CCGTA the value was 4140 ± 360; for GATTC, 2620 ± 300.
For TAGGA, the “TdT poly-dT extension signal” value came out at 3600 ± 400.
Turning to GCAG, the “TdT poly-dT extension signal” value worked out at 4160 ± 600.
For the sequence GGCAA, the “TdT poly-dT extension signal” value was determined as 4010 ± 390.
For the sequence GGCAG, the “TdT poly-dT extension signal” value was found to be 3910 ± 460.
For AACTC, the “TdT poly-dT extension signal” value came out at 2630 ± 260.
Take AACGA: the “TdT poly-dT extension signal” value was 3280 ± 460.
For GCAAT the value was 4010 ± 380; for TGTAC, 2920 ± 430.
CCTCA: the “TdT poly-dT extension signal” value was found to be 4210 ± 260.
Regarding GGGTT, the “TdT poly-dT extension signal” value turned out to be 4820 ± 330.
The figure for GCACG is 4350 ± 370.
Regarding CTTAT, the “TdT poly-dT extension signal” value amounted to 3630 ± 370.
In the case of ATCGG, the “TdT poly-dT extension signal” value turned out to be 3520 ± 400.
Regarding CAAG, the “TdT poly-dT extension signal” value was 4090 ± 230.
For the sequence TGCT, the “TdT poly-dT extension signal” value was determined as 3490 ± 330.
On to CCACT, for which the “TdT poly-dT extension signal” value is 3550 ± 220.
The figure for GTCTT is 3420 ± 320; for AAAGG it is 3360 ± 440.
For the sequence AGCTG, the “TdT poly-dT extension signal” value came out at 3930 ± 450.
With GTTG, the “TdT poly-dT extension signal” value came out at 3620 ± 300.
In the case of TCTAC, the “TdT poly-dT extension signal” value is 3610 ± 210.
For ATGAC the value was 3360 ± 280.
